Results on one molecule are retold here after PMC6005420, “A low-complexity region in the YTH domain protein Mmi1 enhances RNA binding”.

Results are given in words; binding and its absence hold for the method and conditions named.

The assay concerns the target Mmi1 USR-YTH (residues 282-488) (Schizosaccharomyces pombe) (UniProt O74958). As to the kind of experiment: SEC-MALS; 100 ul of purified sample at 10 mg/ml on Superdex 75 increase 10/300gl, 0.5 ml/min; both purified.

B1: Mmi1 USR-YTH (residues 282-488) (domain or fragment, UniProt O74958 282-488)
chain: GAYPEKSSYLLSNSSNDSASRKEKPKARASTPPPLNFSRASEHRNEKGERISMINPRVVLDENGISHRSRYFIMLCDNETAIAHAKKTSIWAVKKDSSKRISDAYKKASVYFIFVAQQTYNALGYAQVVSDLNSTELPFWSDSSHAGGVRIKWIKTCNLFSAEISEIVSHMDHGSEARDGMEMMYDEGSRLCTLINYAIMKRIGRDR
Regarding B1, the binding result was “no binding (tested: 10 mg/ml)”.
